This is one part of the list. Residues, ends and D or L forms follow the SMILES beside them. *: point of attachment. Cbz = O=C(OCc1ccccc1)*
Columns and labels:
Assay in all cases: log2 fold change, soluble protein after heating vs DMSO (PISA); higher = thermal stabilisation; K562 cells, 10 uM, 30 min; active = over 0.2 and 3.5 SD of the protein, either way, in both replicates (recomputed)
IRAK-1-4 Inhibitor I = compound: C1COCCN1CCN2C3=CC=CC=C3N=C2NC(=O)C4=CC(=CC=C4)[N+](=O)[O-] [IRAK-1-4 Inhibitor I]
Method in brief: (§1)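 Thermal stability values are relative to control samples and come from duplicates. They are expressed as log2 fold changes. For measurement, K562 cells (2×10^6 cells/mL) received 10 μM compound for 30 min, and aliquots were heated for 3 min over 48°C-58°C, pooled, and extracted at 4°C in PBS with 0.5% NP-40. Soluble protein, the supernatant after 21,000xg for 90 min, was quantified by TMTpro 16plex LC-MS/MS with equalised channel sums.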

Sequences of proteins named here, by UniProt entry; tags and fusion partners are left off. A change or cut given only in a name is not applied to a line headed by its entry.
UniProt Q9UKD1: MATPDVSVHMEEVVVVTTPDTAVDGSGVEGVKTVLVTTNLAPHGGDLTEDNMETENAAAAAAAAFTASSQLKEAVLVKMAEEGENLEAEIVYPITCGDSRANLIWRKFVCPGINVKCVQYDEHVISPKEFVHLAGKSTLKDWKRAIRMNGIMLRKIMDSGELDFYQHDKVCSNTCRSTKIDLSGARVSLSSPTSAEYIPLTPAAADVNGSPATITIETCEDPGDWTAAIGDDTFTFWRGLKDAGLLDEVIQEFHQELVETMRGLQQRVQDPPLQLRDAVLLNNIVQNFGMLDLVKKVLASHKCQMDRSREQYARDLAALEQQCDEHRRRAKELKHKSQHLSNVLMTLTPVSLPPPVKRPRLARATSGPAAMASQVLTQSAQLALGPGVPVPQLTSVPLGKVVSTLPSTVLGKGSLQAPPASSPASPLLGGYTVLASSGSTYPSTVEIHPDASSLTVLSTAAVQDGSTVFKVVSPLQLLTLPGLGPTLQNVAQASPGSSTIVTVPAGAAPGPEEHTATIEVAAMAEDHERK
UniProt Q7Z5G4, whole entry, looked up: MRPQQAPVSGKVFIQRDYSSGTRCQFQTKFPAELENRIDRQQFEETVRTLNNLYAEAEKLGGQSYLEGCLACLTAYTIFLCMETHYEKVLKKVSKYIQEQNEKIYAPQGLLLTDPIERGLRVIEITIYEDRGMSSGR
UniProt O94925: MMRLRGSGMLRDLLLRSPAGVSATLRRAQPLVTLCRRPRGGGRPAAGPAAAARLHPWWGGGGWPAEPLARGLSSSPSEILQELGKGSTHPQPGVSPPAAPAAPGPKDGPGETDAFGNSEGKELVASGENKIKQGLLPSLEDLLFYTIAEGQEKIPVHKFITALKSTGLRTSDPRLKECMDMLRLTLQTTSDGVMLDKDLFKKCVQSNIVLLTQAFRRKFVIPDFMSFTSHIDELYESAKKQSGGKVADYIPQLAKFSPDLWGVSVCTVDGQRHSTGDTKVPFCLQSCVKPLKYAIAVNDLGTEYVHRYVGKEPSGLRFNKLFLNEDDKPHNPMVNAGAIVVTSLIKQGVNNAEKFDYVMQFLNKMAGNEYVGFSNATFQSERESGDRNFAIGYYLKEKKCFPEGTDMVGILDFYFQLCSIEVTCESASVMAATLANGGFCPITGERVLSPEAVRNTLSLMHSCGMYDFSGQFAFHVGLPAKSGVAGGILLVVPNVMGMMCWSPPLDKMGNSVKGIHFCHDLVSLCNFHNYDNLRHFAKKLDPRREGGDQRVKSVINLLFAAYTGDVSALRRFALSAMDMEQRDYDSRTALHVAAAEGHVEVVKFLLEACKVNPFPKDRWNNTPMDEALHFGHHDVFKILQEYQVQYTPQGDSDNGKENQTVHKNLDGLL
UniProt Q9Y248: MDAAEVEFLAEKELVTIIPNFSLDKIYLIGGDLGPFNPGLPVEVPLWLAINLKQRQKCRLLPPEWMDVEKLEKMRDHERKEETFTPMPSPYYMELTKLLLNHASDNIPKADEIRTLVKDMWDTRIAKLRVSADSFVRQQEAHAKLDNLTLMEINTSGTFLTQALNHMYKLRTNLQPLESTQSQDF
UniProt Q9H9Y4: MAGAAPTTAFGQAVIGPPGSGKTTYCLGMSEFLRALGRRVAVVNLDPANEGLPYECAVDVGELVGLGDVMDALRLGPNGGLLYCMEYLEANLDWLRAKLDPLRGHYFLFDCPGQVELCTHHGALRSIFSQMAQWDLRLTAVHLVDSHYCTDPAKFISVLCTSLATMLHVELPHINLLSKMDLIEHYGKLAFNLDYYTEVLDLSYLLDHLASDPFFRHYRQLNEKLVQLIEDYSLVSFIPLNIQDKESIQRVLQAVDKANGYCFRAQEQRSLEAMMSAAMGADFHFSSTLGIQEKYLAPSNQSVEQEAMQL
UniProt Q14161: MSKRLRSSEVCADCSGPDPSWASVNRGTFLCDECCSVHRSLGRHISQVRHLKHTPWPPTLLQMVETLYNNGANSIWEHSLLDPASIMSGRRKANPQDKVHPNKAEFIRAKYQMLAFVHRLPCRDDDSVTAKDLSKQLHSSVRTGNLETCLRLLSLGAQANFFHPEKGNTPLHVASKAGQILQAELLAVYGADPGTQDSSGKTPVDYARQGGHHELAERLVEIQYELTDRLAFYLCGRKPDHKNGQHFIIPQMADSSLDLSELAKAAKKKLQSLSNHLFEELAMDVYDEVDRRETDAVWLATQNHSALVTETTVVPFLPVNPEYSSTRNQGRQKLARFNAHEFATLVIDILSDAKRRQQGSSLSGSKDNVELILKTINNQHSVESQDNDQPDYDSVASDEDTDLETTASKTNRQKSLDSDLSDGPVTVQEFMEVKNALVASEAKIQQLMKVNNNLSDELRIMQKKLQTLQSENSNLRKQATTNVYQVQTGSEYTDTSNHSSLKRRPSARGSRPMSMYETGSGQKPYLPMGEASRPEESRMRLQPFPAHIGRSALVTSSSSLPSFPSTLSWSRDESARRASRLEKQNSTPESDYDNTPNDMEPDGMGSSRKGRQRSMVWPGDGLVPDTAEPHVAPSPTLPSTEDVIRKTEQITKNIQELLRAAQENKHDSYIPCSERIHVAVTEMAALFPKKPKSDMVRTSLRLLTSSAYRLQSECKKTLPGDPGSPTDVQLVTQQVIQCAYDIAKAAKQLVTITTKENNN
UniProt P49448: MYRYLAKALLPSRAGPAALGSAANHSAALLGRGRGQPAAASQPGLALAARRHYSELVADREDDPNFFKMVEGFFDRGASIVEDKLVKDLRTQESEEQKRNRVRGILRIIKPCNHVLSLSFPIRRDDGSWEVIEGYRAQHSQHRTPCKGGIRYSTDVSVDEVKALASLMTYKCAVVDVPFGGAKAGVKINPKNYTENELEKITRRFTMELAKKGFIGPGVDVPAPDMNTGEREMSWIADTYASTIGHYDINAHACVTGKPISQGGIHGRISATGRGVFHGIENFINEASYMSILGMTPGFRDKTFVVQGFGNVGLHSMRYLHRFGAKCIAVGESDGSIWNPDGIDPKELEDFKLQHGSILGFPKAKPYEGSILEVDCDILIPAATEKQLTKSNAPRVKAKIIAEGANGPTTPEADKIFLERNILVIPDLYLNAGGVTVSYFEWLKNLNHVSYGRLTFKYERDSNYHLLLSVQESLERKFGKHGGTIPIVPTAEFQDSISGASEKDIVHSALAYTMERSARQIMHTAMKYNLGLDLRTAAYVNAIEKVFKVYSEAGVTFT
UniProt P13224: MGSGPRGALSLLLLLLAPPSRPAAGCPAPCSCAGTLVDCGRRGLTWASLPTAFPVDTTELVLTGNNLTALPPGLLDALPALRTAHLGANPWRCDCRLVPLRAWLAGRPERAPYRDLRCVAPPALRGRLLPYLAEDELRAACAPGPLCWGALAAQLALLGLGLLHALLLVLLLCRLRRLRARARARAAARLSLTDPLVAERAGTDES
UniProt Q68CQ7: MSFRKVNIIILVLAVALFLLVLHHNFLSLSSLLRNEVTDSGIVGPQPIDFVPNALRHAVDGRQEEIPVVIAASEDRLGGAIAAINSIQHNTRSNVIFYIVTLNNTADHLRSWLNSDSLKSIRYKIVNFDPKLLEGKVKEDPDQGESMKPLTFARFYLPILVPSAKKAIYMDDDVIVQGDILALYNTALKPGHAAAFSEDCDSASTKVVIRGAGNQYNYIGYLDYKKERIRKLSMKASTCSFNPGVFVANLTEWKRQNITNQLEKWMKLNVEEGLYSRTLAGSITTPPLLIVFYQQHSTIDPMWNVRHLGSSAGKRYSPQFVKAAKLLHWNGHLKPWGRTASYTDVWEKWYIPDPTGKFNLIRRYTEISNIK
UniProt Q4ZG55: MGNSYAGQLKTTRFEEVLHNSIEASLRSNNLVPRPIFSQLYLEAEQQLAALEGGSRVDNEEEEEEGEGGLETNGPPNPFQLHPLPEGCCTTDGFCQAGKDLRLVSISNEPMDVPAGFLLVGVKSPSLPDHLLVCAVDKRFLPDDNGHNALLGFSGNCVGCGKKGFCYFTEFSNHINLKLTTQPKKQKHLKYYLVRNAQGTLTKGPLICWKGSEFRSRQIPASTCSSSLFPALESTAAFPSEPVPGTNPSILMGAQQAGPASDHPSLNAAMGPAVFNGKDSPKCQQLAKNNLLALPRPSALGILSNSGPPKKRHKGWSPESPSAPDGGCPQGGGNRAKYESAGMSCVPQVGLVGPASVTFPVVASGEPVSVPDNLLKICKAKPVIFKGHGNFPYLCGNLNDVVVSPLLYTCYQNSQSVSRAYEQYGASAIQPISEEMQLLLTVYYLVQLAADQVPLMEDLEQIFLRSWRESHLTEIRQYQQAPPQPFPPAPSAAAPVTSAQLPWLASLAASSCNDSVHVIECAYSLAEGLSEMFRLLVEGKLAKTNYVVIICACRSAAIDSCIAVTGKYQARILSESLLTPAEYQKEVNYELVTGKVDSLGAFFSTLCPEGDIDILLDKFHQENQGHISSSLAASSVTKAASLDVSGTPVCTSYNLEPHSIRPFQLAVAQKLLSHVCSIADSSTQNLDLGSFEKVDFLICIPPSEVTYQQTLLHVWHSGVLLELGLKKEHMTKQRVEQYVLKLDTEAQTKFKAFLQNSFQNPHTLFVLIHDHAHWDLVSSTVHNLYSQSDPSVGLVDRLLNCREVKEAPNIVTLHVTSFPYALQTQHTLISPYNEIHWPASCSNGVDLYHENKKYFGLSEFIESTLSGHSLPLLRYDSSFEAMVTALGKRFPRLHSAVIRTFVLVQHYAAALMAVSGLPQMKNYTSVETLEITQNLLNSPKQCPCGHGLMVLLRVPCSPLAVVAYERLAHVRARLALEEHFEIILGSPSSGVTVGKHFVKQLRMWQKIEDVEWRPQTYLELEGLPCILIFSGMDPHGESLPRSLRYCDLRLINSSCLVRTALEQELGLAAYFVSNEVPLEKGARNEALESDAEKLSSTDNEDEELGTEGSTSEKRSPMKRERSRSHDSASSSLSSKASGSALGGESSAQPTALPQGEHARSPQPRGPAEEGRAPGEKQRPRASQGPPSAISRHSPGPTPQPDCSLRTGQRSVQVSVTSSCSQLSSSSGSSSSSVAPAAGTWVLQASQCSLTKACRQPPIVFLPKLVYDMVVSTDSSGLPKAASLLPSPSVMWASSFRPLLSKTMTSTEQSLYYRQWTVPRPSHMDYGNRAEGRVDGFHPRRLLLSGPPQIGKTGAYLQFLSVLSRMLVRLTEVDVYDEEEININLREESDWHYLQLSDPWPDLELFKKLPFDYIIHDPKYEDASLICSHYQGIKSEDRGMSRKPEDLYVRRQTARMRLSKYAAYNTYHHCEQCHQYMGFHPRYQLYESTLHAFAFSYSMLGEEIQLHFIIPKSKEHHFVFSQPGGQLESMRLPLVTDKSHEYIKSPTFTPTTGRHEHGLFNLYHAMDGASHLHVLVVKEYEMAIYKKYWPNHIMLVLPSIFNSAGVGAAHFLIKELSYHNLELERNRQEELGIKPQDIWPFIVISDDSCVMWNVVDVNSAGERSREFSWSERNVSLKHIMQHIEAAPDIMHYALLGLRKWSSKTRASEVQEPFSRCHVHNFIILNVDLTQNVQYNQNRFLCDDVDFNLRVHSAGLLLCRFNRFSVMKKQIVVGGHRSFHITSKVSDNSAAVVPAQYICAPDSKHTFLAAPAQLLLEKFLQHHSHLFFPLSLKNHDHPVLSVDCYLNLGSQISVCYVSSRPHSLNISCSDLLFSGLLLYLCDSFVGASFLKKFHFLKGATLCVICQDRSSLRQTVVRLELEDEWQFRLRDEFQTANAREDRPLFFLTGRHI

ibrutinib = compound: C=CC(=O)N1CCC[C@@H](n2nc(-c3ccc(Oc4ccccc4)cc3)c3c(N)ncnc32)C1 [ibrutinib]
Method in brief: as §1

[1] = compound: CC(=O)c1cnc2ccc(-c3cc(Cl)c(O)c(Cl)c3)nc2c1N[C@H]1CC[C@H](CN(C)C)CC1
Method in brief: as §1

ralimetinib = compound: CC(C)(C)Cn1c(N)nc2ccc(-c3[nH]c(C(C)(C)C)nc3-c3ccc(F)cc3)nc21 [ralimetinib]
Method in brief: as §1

[2] = compound: CC(C)(O)CC(=O)NCCn1ccc2ncnc(Nc3ccc(Oc4cccc(C(F)(F)F)c4)c(Cl)c3)c21
Method in brief: as §1

[3] = compound: CC(C)C1=C2N=C(C=C(N2N=C1)NCC3=CC=CC=C3)NCCCCCCN
Method in brief: as §1

[4] = compound: CC(C)C[C@@H](C=O)NC(=O)[C@H](CC(C)C)NC(=O)[C@H](CC(C)C)NC(=O)OCc1ccccc1
Method in brief: as §1

pinometostat = compound: CC(C)N(C[C@H]1O[C@@H](n2cnc3c(N)ncnc32)[C@H](O)[C@@H]1O)[C@H]1C[C@@H](CCc2nc3cc(C(C)(C)C)ccc3[nH]2)C1 [pinometostat]
Method in brief: as §1

[5] = compound: CC1=C(C2=C(C=C1)C(=O)C3=CC=CC=C3N2CCCN)C
Method in brief: as §1

[6] = compound: CC1=C(C=C(C=C1)NC(=O)C2=CC(=CC=C2)C(C)(C)C#N)NC3=CC4=C(C=C3)N=CN(C4=O)C
Method in brief: as §1

[7] = compound: CC1=C(C=C(C=C1)NC(=O)C2=CC(=CC=C2)N(C)C)NC(=O)C3=CC=C(C=C3)O
Method in brief: as §1

[8] = compound: CC1=CC=C(C=C1)SC2=C3C=C(SC3=CN=C2)C(=O)N
Method in brief: as §1

[9] = compound: CC1=NC(=CC=C1)C2=C(N=C(N2)C(C)(C)C)C3=CC4=NC=CN=C4C=C3
Method in brief: as §1

Nexturastat A = compound: CCCCN(Cc1ccc(C(=O)NO)cc1)C(=O)Nc1ccccc1 [Nexturastat A]
Method in brief: as §1

vemurafenib = compound: CCCS(=O)(=O)Nc1ccc(F)c(C(=O)c2c[nH]c3ncc(-c4ccc(Cl)cc4)cc23)c1F [vemurafenib]
Method in brief: as §1

[10] = compound: CCCS(=O)(=O)Nc1ccc(F)c(C(=O)c2c[nH]c3ncc(Cl)cc23)c1F
Method in brief: as §1

[11] = compound: CCCc1cc(C)[nH]c(=O)c1CNC(=O)c1cc(-c2ccnc(N3CCN(C)CC3)c2)cc2c1cnn2C(C)C
Method in brief: as §1

givinostat = compound: CCN(CC)Cc1ccc2cc(COC(=O)Nc3ccc(C(=O)NO)cc3)ccc2c1 [givinostat]
Method in brief: as §1

barasertib = compound: CCN(CCCOc1ccc2c(Nc3cc(CC(=O)Nc4cccc(F)c4)[nH]n3)ncnc2c1)CCOP(=O)(O)O [barasertib]
Method in brief: as §1

[12] = compound: CC1=C(C(CC(=O)N1)C2=CC=C(C=C2)C(F)(F)F)C(=O)NC3=C(C=C4C(=C3)C=NN4)F
Method in brief: as §1

Target	log2 fold change (IRAK-1-4 Inhibitor I)	log2 fold change (ibrutinib)	log2 fold change [1]	log2 fold change (ralimetinib)	log2 fold change [2]	log2 fold change [3]	log2 fold change [4]	log2 fold change (pinometostat)	log2 fold change [5]	log2 fold change [6]	log2 fold change [7]	log2 fold change [8]	log2 fold change [9]	log2 fold change (Nexturastat A)	log2 fold change (vemurafenib)	log2 fold change [10]	log2 fold change [11]	log2 fold change (givinostat)	log2 fold change (barasertib)	log2 fold change [12]
GMEB2 (UniProt Q9UKD1)	inactive: -0.021	inactive: 0.061	inactive: -0.022	inactive: 0.018	inactive: -0.158	inactive: 0.006	inactive: -0.128	inactive: 0.145	active: -0.367	inactive: 0.038	inactive: -0.033	inactive: 0.041	inactive: -0.066	inactive: 0.09	inactive: 0.012	inactive: 0.041	inactive: -0.088	inactive: 0.087	inactive: 0.029	
GOLGA7 (UniProt Q7Z5G4)	inactive: 0.04	inactive: -0.017	inactive: -0.111		inactive: -0.126	inactive: 0.018		inactive: 0.021	inactive: 0.091	inactive: -0.013		inactive: 0.024	inactive: 0.035	inactive: -0.046	inactive: 0.063	inactive: -0.077	inactive: -0.074	inactive: -0.065	inactive: -0.015	inactive: -0.028
GLS isoform 3 (UniProt O94925)	inactive: 0.011	inactive: -0.15	inactive: -0.046	inactive: -0.19	active: -0.547	inactive: -0.034	inactive: -0.04	inactive: -0.088	inactive: -0.068	inactive: 0.004	inactive: -0.119	inactive: -0.01	inactive: 0.167	inactive: 0.087	inactive: 0.155	inactive: 0.236	inactive: 0.061	inactive: 0.031	inactive: 0.061	
GINS2 (UniProt Q9Y248)	inactive: 0	inactive: -0.033		inactive: 0.024	inactive: -0.02	inactive: -0.081	inactive: -0.042	inactive: -0.067	inactive: 0.113	inactive: 0.136	inactive: -0.168	inactive: 0.099	inactive: 0.147	inactive: 0.174	inactive: 0.102	inactive: 0.029	inactive: 0.021	inactive: -0.038	inactive: 0.053	
GPS1 (UniProt A8K070)	inactive: 0.007	inactive: 0.007		inactive: -0.039		inactive: 0.014	inactive: 0.132	inactive: -0.037			inactive: 0.013		inactive: -0.339				inactive: -0.095	inactive: -0.032	inactive: -0.014	inactive: -0.026
GPN2 (UniProt Q9H9Y4)	inactive: -0.018	inactive: -0.021	inactive: -0.05	inactive: -0.042		inactive: 0.026	inactive: 0.033	inactive: -0.007	inactive: 0.021	inactive: -0.074	inactive: -0.028	inactive: 0.009	inactive: -0.02		inactive: -0.032	inactive: -0.047	inactive: -0.114	inactive: -0.037	inactive: -0.001	inactive: 0.052
GIT2 (UniProt Q14161)	inactive: -0.187	inactive: -0.038	inactive: -0.108		inactive: 0.053	inactive: -0.166		inactive: 0.035				inactive: -0.085	inactive: 0.104	inactive: 0.143		inactive: 0.223	inactive: -0.144	inactive: 0.265	inactive: -0.122	inactive: 0.244
GLUD2 (UniProt P49448)	inactive: 0.025	inactive: 0.045	inactive: 0.113	inactive: 0	inactive: 0.098	inactive: -0.041	inactive: 0.014	inactive: -0.013	inactive: 0.127	inactive: 0.104	inactive: 0.006	inactive: -0.062	inactive: -0.015	inactive: -0.045	inactive: 0.017	inactive: 0.006	inactive: 0.238	inactive: -0.107	inactive: 0.015	
GP1BB isoform 2 (UniProt P13224)	inactive: -0.009	inactive: 0.006	inactive: 0.018		inactive: 0.093	inactive: 0.027		inactive: 0.018	inactive: 0.001	inactive: -0.014		inactive: -0.024	inactive: 0.013	inactive: -0.029	inactive: 0.018	inactive: -0.034	inactive: 0.017	inactive: 0.042	inactive: 0	inactive: -0.005
GLT8D1 (UniProt Q68CQ7)			inactive: -0.168																	inactive: 0.006
GREB1 (UniProt Q4ZG55)	inactive: 0.04		inactive: 0.037		inactive: -0.032	inactive: 0.26		inactive: -0.095	inactive: 0.066	inactive: -0.003			inactive: -0.338	active: 0.755	inactive: 0.047			inactive: 0.294		
GOSR1 (UniProt E9PCW1)		inactive: 0.039				inactive: -0.246						inactive: -0.022				inactive: 0.052	inactive: 0.089	inactive: -0.038	inactive: 0.123	

Not a retest: entries from further up.
Target	log2 fold change (IRAK-1-4 Inhibitor I)	log2 fold change (ibrutinib)	log2 fold change [1]	log2 fold change (ralimetinib)	log2 fold change [2]	log2 fold change [3]	log2 fold change [4]	log2 fold change (pinometostat)	log2 fold change [5]	log2 fold change [6]	log2 fold change [7]	log2 fold change [8]	log2 fold change [9]	log2 fold change (Nexturastat A)	log2 fold change (vemurafenib)	log2 fold change [10]	log2 fold change [11]	log2 fold change (givinostat)	log2 fold change (barasertib)	log2 fold change [12]
GPS1 (UniProt A8K070)	inactive: 0.007	inactive: 0.007		inactive: -0.039		inactive: 0.014	inactive: 0.132	inactive: -0.037			inactive: 0.013		inactive: -0.339				inactive: -0.095	inactive: -0.032	inactive: -0.014	inactive: -0.026
GPN2 (UniProt Q9H9Y4)	inactive: -0.018	inactive: -0.021	inactive: -0.05	inactive: -0.042		inactive: 0.026	inactive: 0.033	inactive: -0.007	inactive: 0.021	inactive: -0.074	inactive: -0.028	inactive: 0.009	inactive: -0.02		inactive: -0.032	inactive: -0.047	inactive: -0.114	inactive: -0.037	inactive: -0.001	inactive: 0.052
GIT2 (UniProt Q14161)	inactive: -0.187	inactive: -0.038	inactive: -0.108		inactive: 0.053	inactive: -0.166		inactive: 0.035				inactive: -0.085	inactive: 0.104	inactive: 0.143		inactive: 0.223	inactive: -0.144	inactive: 0.265	inactive: -0.122	inactive: 0.244

Reference: the supplement of paper PMC10849652
